Test results from paper PMC4671015.
Results are given in words; binding and its absence hold for the method and conditions named. Binding seen in cells or lysates may run through a third protein. Some binding calls cover weakened binding; strength is not graded here.

Amino acid sequences for entries named in this document (tags omitted).
UniProt Q9WV60: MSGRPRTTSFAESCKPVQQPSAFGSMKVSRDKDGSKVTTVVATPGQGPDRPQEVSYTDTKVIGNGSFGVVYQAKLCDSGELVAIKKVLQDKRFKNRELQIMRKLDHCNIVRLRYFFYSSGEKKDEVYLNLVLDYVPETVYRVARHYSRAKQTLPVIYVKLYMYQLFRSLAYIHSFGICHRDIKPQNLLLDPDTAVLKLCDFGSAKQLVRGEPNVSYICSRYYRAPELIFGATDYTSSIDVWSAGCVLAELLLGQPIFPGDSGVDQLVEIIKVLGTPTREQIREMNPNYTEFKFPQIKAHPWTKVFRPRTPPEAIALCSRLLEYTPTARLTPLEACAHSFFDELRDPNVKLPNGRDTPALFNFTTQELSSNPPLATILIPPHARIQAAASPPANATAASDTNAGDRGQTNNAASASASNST

Experiments:
[1] = biological target: Glycogen synthase kinase-3β (GSK3β) (mouse (endogenous in RAW264.7)) (UniProt Q9WV60); assay: co-IP; data not shown; extracts of RAW264.7 cells before RANKL or LiCl treatment; precipitated with anti-hnRNPK or with anti-GSK3β antibody, Western blot of the counterpart
[2] = biological target: Glycogen synthase kinase-3β (GSK3β) (mouse (endogenous in RAW264.7)) (UniProt Q9WV60); assay: co-IP; endogenous proteins in RAW264.7 whole cell lysate (150 mM Tris-HCl, 500 mM NaCl, 1% Triton X-100, pH 7.6), antibody at 4 °C overnight, protein A/G Sepharose; cells treated with RANKL for various durations (IP with anti-hnRNPK) or with 10 mM LiCl for 8 hours (IP with anti-GSK3β); non-immune IgG as control; Western blot

binding [1]: binds weakly | binding [2]: binds
Substance: heterogeneous nuclear ribonucleoprotein K (hnRNPK) (from UniProt P61979 1-463)
